Experimental data: PMC9177846, “Targeting parvalbumin promotes M2 macrophage polarization and energy expenditure in mice” (Nature Communications, 2022)
These are yes or no findings as the source states them, for the method shown. For part of these data: Binding seen in cells or lysates may run through a third protein. Some results given as binding are weak or reduced against the parent protein; the word gives no strength. For part of these data: Tags and fused reporters may be left off the sequences shown.

The chains behind the UniProt entries cited, without tags or fusion partners.
UniProt P32848: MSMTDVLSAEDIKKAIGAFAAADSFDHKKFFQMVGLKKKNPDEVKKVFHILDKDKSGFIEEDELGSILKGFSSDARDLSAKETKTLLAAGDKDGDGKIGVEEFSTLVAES

T1: GFP-tagged CSF1R immunoprecipitated from HEK293T cells (UniProt P09581)
T1 sequence: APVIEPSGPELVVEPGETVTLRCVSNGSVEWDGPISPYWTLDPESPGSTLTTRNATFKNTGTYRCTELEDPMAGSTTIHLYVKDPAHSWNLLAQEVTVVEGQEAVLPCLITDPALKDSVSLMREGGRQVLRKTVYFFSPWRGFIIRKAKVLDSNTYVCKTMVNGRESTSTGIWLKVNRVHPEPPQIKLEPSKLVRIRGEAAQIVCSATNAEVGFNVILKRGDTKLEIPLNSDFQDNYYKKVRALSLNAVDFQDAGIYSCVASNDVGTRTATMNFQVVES


Experiments:
[1] = target: T1, GFP-tagged CSF1R immunoprecipitated from HEK293T cells; experiment: pull-down; CSF1R immunoprecipitated from lysate of transfected cells on protein A/G agarose beads, washed with PBS, parvalbumin (1 ug/ml) added for 2 h, washed, immunoblot; only the binder purified
[2] = target: T1, GFP-tagged CSF1R immunoprecipitated from HEK293T cells; experiment: pull-down; as the pull-down of parvalbumin with immunoprecipitated CSF1R from HEK293T cells, with parvalbumin blocker (1 μg/ml) added; only the binder purified
[3] = target: parvalbumin (recombinant protein) (UniProt P32848); experiment: pull-down; competition: parvalbumin blocker peptide (1 μg/ml) added with parvalbumin to immunoprecipitated CSF1R; blocker against parvalbumin; both purified

binding [1]	binding [2]	binding [3]	Molecule
binds	binds	–	parvalbumin (recombinant protein) (from UniProt P32848 1-110)
–	–	binds	MREGGRQVLRKTVY [parvalbumin blocker (M141-Y154 region of CSF1R)]
